Source: PubChem BioAssay AID1259425 (University of Nebraska Medical Center, 2018)

Aim: 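Find knockdowns that reproduce the gene expression pattern seen when KSR1 is lost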 (primary screen)
Cell system: HCT116 human colon cancer cells
Reagents: siRNA pool against human genes, 50 nM siRNA
Measured: 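mRNA of six signature genes measured together by branched-DNA assay after 50 nM siRNA pool, blank removed, divided by geometric mean of two housekeeping genes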
Direction: BNIP3L mRNA: higher = more BNIP3L transcript after knockdown
This is a random part of about 14,000 reagents tested. Further read-outs or replicates are left out here. Reagent sequences are not shown. The record does not give: the time to read-out.

The opening 4 entries, ahead of the listing:
CYP2C18: BNIP3L mRNA, set 1 = 0.107
HELZ2: BNIP3L mRNA, set 1 = 0.0915
MAGEC3: BNIP3L mRNA, set 1 = 0.0478
DUSP3: BNIP3L mRNA, set 1 = 0.168

Results, from the first entry:
CYP2C18: BNIP3L mRNA, set 1 = 0.107
HELZ2: BNIP3L mRNA, set 1 = 0.0915
MAGEC3: BNIP3L mRNA, set 1 = 0.0478
DUSP3: BNIP3L mRNA, set 1 = 0.168
TLL1: BNIP3L mRNA, set 1 = 0.0643
RNF167: BNIP3L mRNA, set 1 = 0.0755
ZNF232: BNIP3L mRNA, set 1 = 0.291
SEMA5A: BNIP3L mRNA, set 1 = 0.0828
RHOG: BNIP3L mRNA, set 1 = 0.145
CNTFR: BNIP3L mRNA, set 1 = 0.139
HTR7: BNIP3L mRNA, set 1 = 0.117
CXCL14: BNIP3L mRNA, set 1 = 0.079
ZNF701: BNIP3L mRNA, set 1 = 0.164
SYNGR1: BNIP3L mRNA, set 1 = 0.0984
ACSL5: BNIP3L mRNA, set 1 = 0.132
NDUFV2: BNIP3L mRNA, set 1 = 0.0332
TBX4: BNIP3L mRNA, set 1 = 0.123
SLC6A8: BNIP3L mRNA, set 1 = 0.0951
EDDM3B: BNIP3L mRNA, set 1 = 0.0664
ZFR: BNIP3L mRNA, set 1 = 0.116
NUP37: BNIP3L mRNA, set 1 = 0.0857
ZNF562: BNIP3L mRNA, set 1 = 0.117
SYNPO2L: BNIP3L mRNA, set 1 = 0.125
PLAAT4: BNIP3L mRNA, set 1 = 0.0914
USF2: BNIP3L mRNA, set 1 = 0.114
HSBP1: BNIP3L mRNA, set 1 = 0.181
RLBP1: BNIP3L mRNA, set 1 = 0.0663
SYNCRIP: BNIP3L mRNA, set 1 = 0.183
OSM: BNIP3L mRNA, set 1 = 0.0542
WDR73: BNIP3L mRNA, set 1 = 0.185
HOXA13: BNIP3L mRNA, set 1 = 0.125
FMO4: BNIP3L mRNA, set 1 = 0.0695
GRIN2B: BNIP3L mRNA, set 1 = 0.0659
FRRS1L: BNIP3L mRNA, set 1 = 0.443
TRAF2: BNIP3L mRNA, set 1 = 0.135
MDC1: BNIP3L mRNA, set 1 = 0.0609
